# Primary screen of a compound library

The chains behind the UniProt entries cited, without tags or fusion partners. Residues count along the entry.
UniProt Q8IDJ8, 1-583: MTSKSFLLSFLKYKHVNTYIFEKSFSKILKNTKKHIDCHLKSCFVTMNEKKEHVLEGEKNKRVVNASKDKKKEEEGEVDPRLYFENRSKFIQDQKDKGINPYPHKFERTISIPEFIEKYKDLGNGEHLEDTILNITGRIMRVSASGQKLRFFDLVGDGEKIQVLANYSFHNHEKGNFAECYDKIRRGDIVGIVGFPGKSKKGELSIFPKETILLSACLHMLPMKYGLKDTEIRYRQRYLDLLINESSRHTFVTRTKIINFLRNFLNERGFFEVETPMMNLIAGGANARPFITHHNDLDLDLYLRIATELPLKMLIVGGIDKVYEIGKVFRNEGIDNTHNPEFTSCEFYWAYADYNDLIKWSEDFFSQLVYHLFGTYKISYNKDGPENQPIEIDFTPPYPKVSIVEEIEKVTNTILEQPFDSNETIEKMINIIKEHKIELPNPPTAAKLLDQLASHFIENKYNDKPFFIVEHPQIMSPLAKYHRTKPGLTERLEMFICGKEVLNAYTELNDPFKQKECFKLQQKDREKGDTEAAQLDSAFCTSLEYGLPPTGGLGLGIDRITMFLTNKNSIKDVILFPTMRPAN

Source: ChEMBL document CHEMBL3988442, “University of Dundee, Small-Polar-MMV Screening Library” (2021).

Results are given as percent effect. The controls that fix the scale are not given in the record; negative values are as filed. This is an unselected part of the compounds tested.

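Enzyme assay of the cytosolic lysyl-tRNA synthetase in 384-well plates, read by luminescence. Target: Lysine-tRNA ligase, Plasmodium falciparum 3D7 (UniProt Q8IDJ8). Tested at 30 µM. Direction is inferred from only a few compounds that gave an IC50; most scored high, so higher reads as stronger inhibition. Size under these conditions: about 69,000 compounds, about 49 of them at 50% or above in at least one test.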

- COc1c(CNC(c2ccccc2F)c2nccn2C)c(C)nn1C (stereo not drawn) | 0.2436%
- O=S(=O)(NC[C@H]1C[C@@H]2CCN1C[C@@H]2CN1CCCC1)c1ccc(Cl)cc1 | -0.5259%
- CNC(=O)c1cccc(C2CNCCN2C(=O)c2ccn(C)n2)c1 (stereo not drawn) | 0.7514%
- CN1CSC[C@H]1C(=O)N1CCN(Cc2cccc(F)c2)CC1 | -2.128%
- CC1CCN(c2ccc(NC(=O)CCn3cccn3)cc2)CC1 | 1.724%
- O=C(c1ccc2[nH]ccc2c1)N1CCn2cnc(COCC3CC3)c2C1 | 9.177%
- COCCN(CCOC)C(=O)c1cccc(Cn2nc(C)cc2C)c1 | 1.05%
- COCCN(Cc1ccoc1)S(=O)(=O)c1ccc(F)c(Cl)c1 | -2.189%
- CCc1cc(C(=O)N2CCCC(c3cc(=O)nc4n3CCC4)C2)no1 (stereo not drawn) | 1.277%
- Cc1cc(N2CCC(c3ncc[nH]3)CC2)c2ccccc2n1 | -4.76%
- Cc1ccsc1C(=O)N1CCN(Cc2cscn2)CC1 | -0.596%
- NC(=O)COc1ccc(CNC(=O)CN2CCc3ccccc32)cc1 | 1.97%
- O[C@@]1(c2ccccn2)CC[C@H]2CN(Cc3ccccn3)C[C@H]21 | 3.22%
- CS(=O)(=O)c1nccn1Cc1ccncc1 | 1.157%
- Cc1cc(C)n(C2CN(CCC(=O)NC3CCCCC3)C2)n1 | 0.2489%
- CN(Cc1ccc(-n2ccnc2)cc1)Cc1ncc[nH]1 | 7.629%
- CCOCC(=O)N1Cc2nccn2CC(CN2CCCC2)C1 (stereo not drawn) | 0.8592%
- CC(C)C(=O)NCCNC(=O)C12CCC(=O)N1c1cc(Cl)ccc1S2 (stereo not drawn) | 0.5891%
- COc1ccccc1-n1cc(C(=O)NCCn2nc(C)nc2C)cn1 | 12.36%
- COc1c(CNCc2nnc3n2CCCCC3)c(C(C)C)nn1C | -0.9389%
- Fc1cccc(-c2c[nH]c([C@@H]3COCCN3C3CCOCC3)n2)c1 | 3.73%
- NC(=O)c1cn[nH]c1C1CCCN1C(=O)c1ccccn1 (stereo not drawn) | 1.308%
- NCc1cn(-c2ccccc2C(=O)NCc2ccccc2)cn1 | 7.302%
- CCOc1ccccc1N1CCN(C(=O)c2cc[nH]n2)CC1 | 0.3559%
- CCC1(c2ccc(NS(=O)(=O)N(C)C)cc2)CCC(=O)NC1=O (stereo not drawn) | 4.213%
- CCNC(=O)c1ccc(NC(=O)N(C)Cc2cc(C)on2)c(C)c1 | -0.5786%
- O=S(=O)(NCCn1cc(C2CCCNC2)nn1)c1ccc(Cl)cc1 (stereo not drawn) | 6.192%
- CS(=O)(=O)N1CCCC1c1ccnc2nccn12 (stereo not drawn) | 0.2547%
- O=C([C@H]1CN(Cc2cccnc2)C[C@H]2OCC[C@@H]12)N1CCCO1 | 2.786%
- Cc1ncsc1CN1CC[C@](C)(O)[C@@H](Oc2cccc(F)c2)C1 | 1.233%
- CCS(=O)(=O)N1C[C@@H]2COC[C@@H](Cc3nc(C)no3)[C@@H]2C1 | 0.5665%
- c1ccc(CN2CCc3ncnc(-c4ccncc4)c3CC2)nc1 | 0.09288%